# In article PMC7576810:
# The chains behind the UniProt entries cited, without tags or fusion partners. Where a name states a change or a piece, a line headed by the entry shows the natural chain unless it says otherwise. A line that says so, or that is headed by a name, gives the form on record, which may keep a tag or linker.
# Flag-tagged EVI1-WT (Q03112, form named): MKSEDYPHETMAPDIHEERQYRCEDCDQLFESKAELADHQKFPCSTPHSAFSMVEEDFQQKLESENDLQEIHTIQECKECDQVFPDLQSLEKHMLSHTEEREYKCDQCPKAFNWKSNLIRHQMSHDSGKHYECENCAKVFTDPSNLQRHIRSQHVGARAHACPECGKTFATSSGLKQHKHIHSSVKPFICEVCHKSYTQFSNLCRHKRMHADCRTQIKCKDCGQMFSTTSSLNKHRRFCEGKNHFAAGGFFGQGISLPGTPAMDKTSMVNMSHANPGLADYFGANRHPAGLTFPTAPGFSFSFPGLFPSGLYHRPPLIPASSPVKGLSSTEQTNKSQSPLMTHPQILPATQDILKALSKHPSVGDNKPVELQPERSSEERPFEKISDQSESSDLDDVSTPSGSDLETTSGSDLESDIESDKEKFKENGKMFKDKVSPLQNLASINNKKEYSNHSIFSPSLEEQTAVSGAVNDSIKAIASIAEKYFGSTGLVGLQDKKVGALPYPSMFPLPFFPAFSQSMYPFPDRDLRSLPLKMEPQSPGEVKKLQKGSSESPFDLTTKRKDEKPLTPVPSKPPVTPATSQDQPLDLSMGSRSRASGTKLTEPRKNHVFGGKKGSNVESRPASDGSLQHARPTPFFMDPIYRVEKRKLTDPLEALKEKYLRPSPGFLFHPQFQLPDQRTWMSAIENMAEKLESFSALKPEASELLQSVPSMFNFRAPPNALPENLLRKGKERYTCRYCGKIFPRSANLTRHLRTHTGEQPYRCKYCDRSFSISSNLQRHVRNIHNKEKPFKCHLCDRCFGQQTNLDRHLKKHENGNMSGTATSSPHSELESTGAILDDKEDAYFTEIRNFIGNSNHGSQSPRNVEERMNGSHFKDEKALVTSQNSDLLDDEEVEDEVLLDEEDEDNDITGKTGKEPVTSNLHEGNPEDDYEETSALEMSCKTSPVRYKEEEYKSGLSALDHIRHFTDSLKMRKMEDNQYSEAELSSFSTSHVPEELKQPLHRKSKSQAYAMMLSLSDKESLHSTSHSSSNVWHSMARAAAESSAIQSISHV
# Flag-tagged EVI1-S436A (Q03112, form named): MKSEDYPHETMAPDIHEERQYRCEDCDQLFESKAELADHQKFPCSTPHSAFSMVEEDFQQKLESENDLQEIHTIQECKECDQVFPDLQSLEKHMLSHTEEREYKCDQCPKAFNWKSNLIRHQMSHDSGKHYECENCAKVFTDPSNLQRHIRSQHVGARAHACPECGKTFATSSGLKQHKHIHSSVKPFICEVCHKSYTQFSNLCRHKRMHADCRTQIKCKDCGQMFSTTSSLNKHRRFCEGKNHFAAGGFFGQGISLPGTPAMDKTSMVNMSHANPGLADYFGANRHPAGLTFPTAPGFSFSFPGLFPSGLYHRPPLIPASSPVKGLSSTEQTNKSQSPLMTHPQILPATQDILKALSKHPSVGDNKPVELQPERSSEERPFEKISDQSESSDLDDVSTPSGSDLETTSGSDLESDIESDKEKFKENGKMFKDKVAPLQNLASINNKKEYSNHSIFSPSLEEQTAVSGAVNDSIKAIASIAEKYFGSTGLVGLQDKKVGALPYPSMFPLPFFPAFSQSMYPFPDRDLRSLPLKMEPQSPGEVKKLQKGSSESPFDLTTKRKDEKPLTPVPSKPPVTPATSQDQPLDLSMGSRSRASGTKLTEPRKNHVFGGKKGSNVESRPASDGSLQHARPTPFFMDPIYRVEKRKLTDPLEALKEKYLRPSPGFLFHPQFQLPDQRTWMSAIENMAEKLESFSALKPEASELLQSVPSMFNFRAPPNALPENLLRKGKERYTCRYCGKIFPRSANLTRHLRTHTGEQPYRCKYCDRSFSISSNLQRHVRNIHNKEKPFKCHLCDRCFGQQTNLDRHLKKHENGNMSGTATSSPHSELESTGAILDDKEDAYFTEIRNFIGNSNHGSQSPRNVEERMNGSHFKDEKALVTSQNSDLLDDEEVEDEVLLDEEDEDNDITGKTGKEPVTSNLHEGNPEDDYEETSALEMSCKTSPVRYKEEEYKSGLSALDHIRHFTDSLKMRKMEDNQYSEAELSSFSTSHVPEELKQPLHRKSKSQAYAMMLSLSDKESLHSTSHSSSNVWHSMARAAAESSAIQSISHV
# UniProt Q00526: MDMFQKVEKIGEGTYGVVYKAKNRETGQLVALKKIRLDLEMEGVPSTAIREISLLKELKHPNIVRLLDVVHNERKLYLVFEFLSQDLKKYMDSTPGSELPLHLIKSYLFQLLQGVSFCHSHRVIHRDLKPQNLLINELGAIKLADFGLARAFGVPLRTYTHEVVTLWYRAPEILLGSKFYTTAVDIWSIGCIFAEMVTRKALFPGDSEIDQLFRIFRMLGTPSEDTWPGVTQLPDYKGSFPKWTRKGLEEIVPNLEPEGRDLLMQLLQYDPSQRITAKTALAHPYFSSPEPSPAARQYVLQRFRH
# UniProt P68400: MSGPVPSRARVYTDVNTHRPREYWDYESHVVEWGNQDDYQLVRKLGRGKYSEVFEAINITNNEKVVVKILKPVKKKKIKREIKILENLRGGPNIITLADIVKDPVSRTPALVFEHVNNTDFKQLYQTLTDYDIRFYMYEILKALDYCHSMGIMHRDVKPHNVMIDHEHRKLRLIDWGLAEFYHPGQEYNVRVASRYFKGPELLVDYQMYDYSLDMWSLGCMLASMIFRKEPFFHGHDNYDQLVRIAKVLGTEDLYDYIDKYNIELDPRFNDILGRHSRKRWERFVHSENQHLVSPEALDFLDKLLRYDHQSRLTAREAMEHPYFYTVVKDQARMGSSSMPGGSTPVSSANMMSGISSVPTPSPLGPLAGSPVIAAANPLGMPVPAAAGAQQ
# Read-outs that look alike come from different tables or passages of the source. Results are given in words; binding and its absence hold for the method and conditions named. In cells and extracts the contact can be indirect. Here binding means that the protein was enriched with, or labelled near, the bait; the list need not be complete. For some of these results: No binding means not detected with the bait.
# B1: PRDX1 (protein, UniProt Q06830 1-199)
# chain: MSSGNAKIGHPAPNFKATAVMPDGQFKDISLSDYKGKYVVFFFYPLDFTFVCPTEIIAFSDRAEEFKKLNCQVIGASVDSHFCHLAWVNTPKKQGGLGPMNIPLVSDPKRTIAQDYGVLKADEGISFRGLFIIDDKGILRQITVNDLPVGRSVDETLRLVQAFQFTDKHGEVCPAGWKPGSDTIKPDVQKSKEYFSKQK
# Assays:
# Assay in all cases: affinity purification with mass spectrometry; FLAG-IP of HEK293 cells expressing FLAG-tagged EVI1-WT or EVI1-S436A versus empty vector control; in-gel digested samples analysed by MS; CRAPome used to consider nonspecific interactions
# [1] = target: Flag-tagged EVI1-WT (human) (UniProt Q03112)
# [2] = target: Flag-tagged EVI1-S436A (human) (UniProt Q03112)
# [3] = target: Flag-tagged EVI1-WT (human) (UniProt Q03112); remark: listed apart in the source
Molecule,binding [1],binding [2],binding [3]
CDK3 (from UniProt Q00526 1-305) (enzyme),binds,,
casein kinase CSNK2A1 (from UniProt P68400 1-391) (enzyme),binds,,
B1,,binds,no binding
